Experimental data published in patent EP0316690A2, “Agent for the treatment of ischemic heart diseases” (Dr. Karl Thomae GmbH, priority 1987, dated 1989).

Test system: glattmuskuläre coronare Muscarinrezeptoren
Experiment: Isolated perfused Langendorff heart: antagonism of the carbachol effect on coronary flow (CF)
Set-up: species or system Wistar Ratten
Procedure: Diese günstigen Eigenschaften der Verbindungen I und II werden experimentell am Standardmodell der isoliert perfundierten Langendorff-Herzen überprüft. Meßparameter sind Herzfrequenz und Coronarfluß.
Männliche Wistar Ratten mit einem Körpergewicht zwischen 300 und 350 g wurden mit Pentobarbital (70 mg/kg i.p.) anaesthe siert. […] Die Herzen wurden über die Aorta mit Krebs-Henseleit-Puffer (KHB) retograd bei einem konstanten Druck von 70 mm Hg perfundiert. Die Zusammensetzung des KHB betrug in mM: Kochsalz 114, Kaliumchlorid 4,7, Natriumbicarbonat 23,6, Kaliumdihydrogenphosphat 1,2, Magnesiumsulfat 1,1, Calziumchlorid 2,5. 11 mM Glucose wurden als Substrat beigefügt. Die Herzfrequenz (HR) wurde durch einen Tachographen (IFD, Mülheim) gemessen, der Coronarfluß (CF) wurde mittels eines elektromagnetischen Flowmeters (IFD, Mülheim) in Verbindung mit einer Sonde in dem zuführenden Teil der Aorta bestimmt.
Nach einer 15-minütigen Stabilisierungsphase in allen Experimenten wurde die erste Dosis-Wirkungs-Kurve erstellt. Dies geschah durch die Gabe von dem Fluß angepaßten Bolus-Injektionen (0,01 ml/10 ml CF) mit ansteigenden Dosierungen von Carbachol (10⁻⁶ bis 10⁻²M). […] Darauffolgend gab man eine höhere Dosis des Antagonisten zu und es wurde der Einfluß von Carbachol auf den Coronarfluß (CF) und die Herzfrequenz (HF) erneut durch die Aufnahme von Dosis-Wirkungs-Kurven quantifiziert.

## CN1C2CCC1CC(OC(=O)C(CO)c1ccccc1)C2 (racemic) [Atropin, reference compound]
  Coronarselektivität (Affinität für coronare vs. frequenzbeeinflussende M-Rezeptoren): fehlt
